According to the supplement of paper PMC12889115:
The other results are listed elsewhere or left out. Values are raw readings; no control value is given beside them.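 Primary screen: polymyxin B was added at a level permeabilizing Salmonella outer membranes while sparing inner membranes. DMSO wells, both with and without polymyxin B, established maximum growth. Plate-to-plate variation meant each plate was ranked on its own, and the lowest-OD600 compounds were selected as hits.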

System: Salmonella enterica serovar Typhimurium SL1344
Experiment: bacterial growth OD600 after 18 h with compound and polymyxin B; higher = more bacterial growth (less inhibition)
Conditions: 50 µM, Mueller-Hinton broth

Compound	bacterial growth OD600 (polymyxin B 0.75 µg/mL)	bacterial growth OD600 (polymyxin B 1 µg/mL)
Cc1cccn2c(CNC(C)c3ccccc3Cl)c(C(=O)N3CCCCC3)nc12 (stereo not given)	0.003	
O=C(Nc1ccccc1Oc1cccnc1)C1CCCN(C2Cc3ccccc3C2)C1 (stereo not given)		0.007
CCc1csc(CNC(=O)c2ccc(N3CCCC3c3ccccn3)nc2)n1 (stereo not given)	0.803	
CO[C@H]1[C@H](NC(=O)c2ccccn2)c2ccccc2C12CCN(C(=O)c1ccc(CC(C)C)cc1)CC2	0.001	
O=C(NCc1ccccc1OC(F)(F)F)C1CC(Cc2cccc(F)c2)=NO1 (stereo not given)	0.647	
CSc1ccc(CC2(CCC(=O)N3CCN(c4nc(C)cnc4C)CC3)CCC(=O)N2)cc1 (stereo not given)	0.731	
C=C(C)CNCC1(O)CCCN(Cc2cccc(F)c2F)C1=O (stereo not given)		0.931
CCc1cc(C(=O)N2CCCC(c3nc(C)ncc3-c3cccc(C)c3)C2)n(C)n1 (stereo not given)	0.832	
CC(C)N1CCN(c2nc3nonc3nc2NC2CCCC2)CC1		0.87
CO[C@H]1[C@H](NC(=O)c2ccncc2)c2ccccc2C12CCN(C(=O)c1csc(C(C)=O)c1)CC2	0.867	
CCc1nc2cc(C(=O)N(C)C3CCCCC3)cc(NC(=O)c3ccccc3OC)c2n1C	0.834	
CC(C)OCCCNC(=O)CC1C(=O)NCCN1Cc1cccc(F)c1F (stereo not given)		0.847
CC[C@H](C)[C@H](NC1CCN(c2ccc(CC(=O)N3CCC[C@H]3C(=O)OC)cc2)CC1)C(=O)OC	0.753	
O=C(c1ccc(N2CCCC(O)C2)nc1)N1CCC(CCn2cccn2)CC1 (stereo not given)	0.791	
C=CCNC(=O)Cc1c2c(n(Cc3ccccc3F)c1C)CCCC2=O		0.73
CCOC(=O)C1(CCc2ccccc2)CCN(C(=O)c2cc(C)nc(C)n2)CC1		0.906
O=C(NCCc1ccncc1)c1ccc(OC2CCN(C(=O)C3CC3)CC2)cc1		1.05
c1ccc(Oc2ncccc2CNCc2ccccn2)cc1		0.836
CCN1CCN(C(=O)c2ccc(N3CCC(N4CCC(c5ccccc5)CC4)CC3)cc2)CC1	0.655	
CC(C)c1noc(-c2ccc(NCC3CCCOC3)nc2)n1 (stereo not given)	0.626	
C=CCCC(=O)NC1CC(C)(C)Cc2c1cnn2-c1cccc(F)c1 (stereo not given)		0.864
CCCCn1c(CN2CCCN(C=O)CC2)cnc1S(=O)(=O)CCCC(C)C	0.607	
O=C(NCCN1Cc2ccccc2OC(c2ccccc2F)C1)C(c1cccnc1)N1CCOCC1 (stereo not given)	0.805	
Cc1ccc(S(=O)(=O)N2CCC(CCC(=O)N(C)Cc3ccccc3)CC2)s1		0.808
COc1ccccc1C(=O)N1CCN(Cc2nc(-c3ccoc3)oc2C)CC1	0.789	
CCCNC(=O)N1CCC2(CCCN(Cc3cc(OC)ccc3F)C2=O)C1 (stereo not given)		0.894
COCCN1CCCC(CNc2nc3nonc3nc2N2CCSCC2)C1 (stereo not given)	0.809	
OC1CCN([C@@H]2CCN(Cc3ccccc3C#Cc3ccccc3)C[C@H]2O)CC1		1.13
Cc1ccccc1CC1(CO)CCCN(C(=O)c2ccccc2Cl)C1 (stereo not given)		0.532
Cn1cc(CN2CCCC(C(N)=O)C2)c(-c2ccc(Oc3ccccc3)cc2)n1 (stereo not given)		0.847

Reformatted with each value named: part of the list above.
Cc1cccn2c(CNC(C)c3ccccc3Cl)c(C(=O)N3CCCCC3)nc12 (stereo not given)
  bacterial growth OD600 (polymyxin B 0.75 µg/mL): 0.003
O=C(Nc1ccccc1Oc1cccnc1)C1CCCN(C2Cc3ccccc3C2)C1 (stereo not given)
  bacterial growth OD600 (polymyxin B 1 µg/mL): 0.007
